No constants are given. Whether binding was seen depends on the method and setting. Binding seen in cells or lysates may run through a third protein. A result given as binding can be weak or reduced; the word gives no strength.
T1: TRIM8 (endogenous) (human (endogenous in PC9)) (UniProt Q9BZR9)
T1 sequence: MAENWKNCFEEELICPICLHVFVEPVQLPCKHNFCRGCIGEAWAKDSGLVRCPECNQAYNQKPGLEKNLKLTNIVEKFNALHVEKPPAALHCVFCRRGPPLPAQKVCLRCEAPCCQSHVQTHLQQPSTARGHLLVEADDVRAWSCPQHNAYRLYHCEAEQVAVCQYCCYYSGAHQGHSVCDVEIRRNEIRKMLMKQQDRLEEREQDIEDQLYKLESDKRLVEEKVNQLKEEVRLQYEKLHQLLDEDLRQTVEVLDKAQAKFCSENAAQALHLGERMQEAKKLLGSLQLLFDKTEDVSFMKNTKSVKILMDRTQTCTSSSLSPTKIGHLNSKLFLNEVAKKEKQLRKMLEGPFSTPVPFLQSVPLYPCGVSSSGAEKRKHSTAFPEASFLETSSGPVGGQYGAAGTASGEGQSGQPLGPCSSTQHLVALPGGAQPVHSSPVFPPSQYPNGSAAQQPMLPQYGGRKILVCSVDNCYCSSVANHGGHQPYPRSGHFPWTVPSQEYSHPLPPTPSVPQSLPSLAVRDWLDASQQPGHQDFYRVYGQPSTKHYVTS

Amino acid sequences for entries named in this document (tags omitted). A change or cut given only in a name is not applied to a line headed by its entry.
UniProt Q86VI4: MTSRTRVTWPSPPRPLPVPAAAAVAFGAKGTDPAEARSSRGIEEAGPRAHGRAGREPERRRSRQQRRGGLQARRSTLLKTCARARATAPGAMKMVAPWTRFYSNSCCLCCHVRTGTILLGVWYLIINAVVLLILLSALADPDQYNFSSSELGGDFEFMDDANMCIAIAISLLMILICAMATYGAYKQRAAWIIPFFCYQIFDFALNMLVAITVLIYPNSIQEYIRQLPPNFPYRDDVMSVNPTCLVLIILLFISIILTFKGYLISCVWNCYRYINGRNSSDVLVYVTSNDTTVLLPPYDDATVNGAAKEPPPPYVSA


Experiments:
[1] = biological target: T1, TRIM8 (endogenous) (human (endogenous in PC9)); assay: co-IP; reciprocal co-IPs with an anti-TRIM8 antibody, blots for ATP1A1 and LAPTM4B (Supplementary Fig. S8K-L)
[2] = biological target: LAPTM4B-24-3xFlag (Flag-tagged LAPTM4B); assay: co-IP; lysates of PC9 (some also HCC827) cells stably expressing the Flag-tagged bait, and control cells, precipitated with anti-Flag beads or antibody; partner detected by immunoblot (anti-HA, anti-ATP1A1, anti-TRIM8)

| Molecule | binding [1] | binding [2] |
| --- | --- | --- |
| LAPTM4B (as probed in the reciprocal co-IPs) (from UniProt Q86VI4) | binds |  |
| TRIM8 (endogenous) (enzyme, UniProt Q9BZR9 1-551) MAENWKNCFEEELICPICLHVFVEPVQLPCKHNFCRGCIGEAWAKDSGLVRCPECNQAYNQKPGLEKNLKLTNIVEKFNALHVEKPPAALHCVFCRRGPPLPAQKVCLRCEAPCCQSHVQTHLQQPSTARGHLLVEADDVRAWSCPQHNAYRLYHCEAEQVAVCQYCCYYSGAHQGHSVCDVEIRRNEIRKMLMKQQDRLEEREQDIEDQLYKLESDKRLVEEKVNQLKEEVRLQYEKLHQLLDEDLRQTVEVLDKAQAKFCSENAAQALHLGERMQEAKKLLGSLQLLFDKTEDVSFMKNTKSVKILMDRTQTCTSSSLSPTKIGHLNSKLFLNEVAKKEKQLRKMLEGPFSTPVPFLQSVPLYPCGVSSSGAEKRKHSTAFPEASFLETSSGPVGGQYGAAGTASGEGQSGQPLGPCSSTQHLVALPGGAQPVHSSPVFPPSQYPNGSAAQQPMLPQYGGRKILVCSVDNCYCSSVANHGGHQPYPRSGHFPWTVPSQEYSHPLPPTPSVPQSLPSLAVRDWLDASQQPGHQDFYRVYGQPSTKHYVTS |  | binds |
